What all share (details): growth mode: biofilm, 24 h; exposure time: 24 h
Compound in assay [1]: T1, NC[C@H]1O[C@H](O[C@H]2[C@H](O)[C@@H](O[C@H]3O[C@H](CO)[C@@H](O)[C@H](N)[C@H]3O)[C@H](N)C[C@@H]2N)[C@H](N)C[C@@H]1O [tobramycin]
The experiment in a line: minimum concentration eradicating biofilm below detection limit (MCK-E); higher = more biofilm tolerance. Here is the method:
(§1)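 Clinical P. aeruginosa isolates were grown as static biofilms for 24 h at 37 °C in LB in half-area 96-well plates, then exposed for 24 h to tobramycin at 1, 4, 16, 64, 256 or […]. Surviving CFU were counted by spotting serial dilutions. MCK is the lowest tested concentration giving the stated log reduction in CFU versus an untreated control; '>1024' means the reduction was not reached at the top dose, and 1 is the lowest dose tested (≤1).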

Compound in assay [2]: T2, CCC(C)CCCC(=O)N[C@@H](CCN)C(=O)N[C@H](C(=O)N[C@@H](CCN)C(=O)N[C@H]1CCNC(=O)[C@H]([C@@H](C)O)NC(=O)[C@H](CCN)NC(=O)[C@H](CCN)NC(=O)[C@H](CC(C)C)NC(=O)[C@@H](CC(C)C)NC(=O)[C@H](CCN)NC1=O)[C@@H](C)O [colistin]
The assay is described as above. Here is the method:
(§2)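 Clinical P. aeruginosa isolates were grown as static biofilms for 24 h at 37 °C in LB in half-area 96-well plates, then exposed for 24 h to colistin at 1, 4, 16, 64, 256 or […]. Surviving CFU were counted by spotting serial dilutions. MCK is the lowest tested concentration giving the stated log reduction in CFU versus an untreated control; '>1024' means the reduction was not reached at the top dose, and 1 is the lowest dose tested (≤1).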

Compound in assay [3]: T1, tobramycin
In words: minimum concentration of killing, 2-log CFU reduction of biofilm (MCK99); higher = more biofilm tolerance. The method, then:
as §1

Compound in assay [4]: T2, colistin
In words: minimum concentration of killing, 1-log CFU reduction of biofilm (MCK90); higher = more biofilm tolerance. The method, then: as §2

Compound in assay [5]: T1, tobramycin
The description is as above. The method, then:
as §1

Compound in assay [6]: T2, colistin
In words: minimum concentration of killing, 2-log CFU reduction of biofilm (MCK99); higher = more biofilm tolerance. The method, then:
as §2

Compound in assay [7]: T2, colistin
The experiment in a line: minimum concentration of killing, 4-log CFU reduction of biofilm (MCK99.99); higher = more biofilm tolerance. The method, then: as §2

Compound in assay [8]: T1, tobramycin
Described as above. The method, then: as §1

The source gives many values for each of these; only a part stands here. Where a SMILES comes first, the peptide text is derived from it. Bridges are numbered along the chain shown (N, C = ends). [ ]: non-standard residue; d: D form. The star is where a group is joined. Heptanoyl(5-Me) = CCC(C)CCCC(=O)*; Dab = NCC[C@H](N)C(=O)O

Take “Pseudomonas aeruginosa clinical isolate CH5206”: the “minimum concentration eradicating biofilm below detection limit” value with tobramycin [1] was found to be 64 µg/mL; with colistin [2] it was 256 µg/mL. Further, the “minimum concentration of killing” value with tobramycin [3] was 4 µg/mL; with colistin [4], 256 µg/mL; with tobramycin [5], 4 µg/mL; with colistin [6], 256 µg/mL; in the assay with colistin [7], 256 µg/mL; with tobramycin [8] it was 64 µg/mL.
As to “Pseudomonas aeruginosa clinical isolate CH4489”, the results for the “minimum concentration eradicating biofilm below detection limit” value in the assay with tobramycin [1] and with colistin [2] were 1020 µg/mL and 64 µg/mL, respectively. In addition, the “minimum concentration of killing” value with tobramycin [3] came to 16 µg/mL; in the assay with colistin [4], 16 µg/mL; in the assay with tobramycin [5], 16 µg/mL; with colistin [6], 64 µg/mL; in the assay with colistin [7], 64 µg/mL; in the assay with tobramycin [8], 1020 µg/mL.
Consider “Pseudomonas aeruginosa clinical isolate CF590_Iso5”, for which the “minimum concentration eradicating biofilm below detection limit” value is > 1020 µg/mL with tobramycin [1] and 1020 µg/mL with colistin [2]. In addition, the “minimum concentration of killing” value with tobramycin [3] was 16 µg/mL; in the assay with colistin [4] it was 16 µg/mL; with tobramycin [5], 4 µg/mL; with colistin [6] it was 64 µg/mL; in the assay with colistin [7], 1020 µg/mL; in the assay with tobramycin [8] it was > 1020 µg/mL.
“Pseudomonas aeruginosa clinical isolate MHH16530”: the “minimum concentration eradicating biofilm below detection limit” value in the assay with tobramycin [1] amounted to 1020 µg/mL; with colistin [2], 256 µg/mL. Besides, the “minimum concentration of killing” value in the assay with tobramycin [3] is 256 µg/mL; with colistin [4] it was 64 µg/mL; in the assay with tobramycin [5], 64 µg/mL; with colistin [6], 256 µg/mL; in the assay with colistin [7], 256 µg/mL; in the assay with tobramycin [8], 1020 µg/mL.
As for “Pseudomonas aeruginosa clinical isolate CH2824”, the “minimum concentration eradicating biofilm below detection limit” value in the assay with tobramycin [1] came out at 64 µg/mL; with colistin [2] it was 256 µg/mL. The “minimum concentration of killing” value with tobramycin [3] was ≤ 1 µg/mL; in the assay with colistin [4], 64 µg/mL; with tobramycin [5] it was ≤ 1 µg/mL; with colistin [6], 64 µg/mL; with colistin [7] it was 256 µg/mL; in the assay with tobramycin [8], 64 µg/mL.
Take “Pseudomonas aeruginosa clinical isolate MHH14990”: the “minimum concentration eradicating biofilm below detection limit” value in the assay with tobramycin [1] and with colistin [2] was 256 µg/mL each time. Besides, the “minimum concentration of killing” value was 16 µg/mL with tobramycin [3]; 256 µg/mL with colistin [4]; 16 µg/mL with tobramycin [5]; 256 µg/mL with colistin [6]; 256 µg/mL in the assay with colistin [7]; 256 µg/mL with tobramycin [8].
As to “Pseudomonas aeruginosa clinical isolate MHH16379”, the “minimum concentration eradicating biofilm below detection limit” value in the assay with tobramycin [1] and with colistin [2] was 256 µg/mL in each case. Besides, the “minimum concentration of killing” value in the assay with tobramycin [3] is 4 µg/mL; in the assay with colistin [4], 64 µg/mL; with tobramycin [5] it was ≤ 1 µg/mL; in the assay with colistin [6] it was 256 µg/mL; in the assay with colistin [7], 256 µg/mL; with tobramycin [8], 256 µg/mL.
Regarding “Pseudomonas aeruginosa clinical isolate ZG316722”, the “minimum concentration eradicating biofilm below detection limit” value with tobramycin [1] and with colistin [2] was 256 µg/mL each time. Moreover, the “minimum concentration of killing” value with tobramycin [3] stood at 16 µg/mL; with colistin [4], 256 µg/mL; with tobramycin [5], 4 µg/mL; with colistin [6], 256 µg/mL; with colistin [7] it was 256 µg/mL; in the assay with tobramycin [8] it was 256 µg/mL.
Take “Pseudomonas aeruginosa clinical isolate CF609_Iso3”: the “minimum concentration eradicating biofilm below detection limit” value was 256 µg/mL with tobramycin [1] and 64 µg/mL with colistin [2]. In addition, the “minimum concentration of killing” value in the assay with tobramycin [3] was found to be 256 µg/mL; with colistin [4] it was 16 µg/mL; with tobramycin [5] it was 64 µg/mL; in the assay with colistin [6], 64 µg/mL; in the assay with colistin [7] it was 64 µg/mL; with tobramycin [8] it was 256 µg/mL.
As for “Pseudomonas aeruginosa clinical isolate F2137”, the “minimum concentration eradicating biofilm below detection limit” value with tobramycin [1] and with colistin [2] was 256 µg/mL throughout. In addition, the “minimum concentration of killing” value was ≤ 1 µg/mL with tobramycin [3]; 64 µg/mL with colistin [4]; ≤ 1 µg/mL with tobramycin [5]; 64 µg/mL in the assay with colistin [6]; 256 µg/mL with colistin [7]; 16 µg/mL in the assay with tobramycin [8].
Take “Pseudomonas aeruginosa clinical isolate CH2724”: the “minimum concentration eradicating biofilm below detection limit” value with tobramycin [1] amounted to 1020 µg/mL; with colistin [2], 256 µg/mL. The “minimum concentration of killing” value was 256 µg/mL in the assay with tobramycin [3]; 64 µg/mL with colistin [4]; ≤ 1 µg/mL with tobramycin [5]; 64 µg/mL in the assay with colistin [6]; 256 µg/mL with colistin [7]; 1020 µg/mL with tobramycin [8].
In the case of “Pseudomonas aeruginosa clinical isolate MHH16798”, the results for the “minimum concentration eradicating biofilm below detection limit” value in the assay with tobramycin [1] and in the assay with colistin [2] were 64 µg/mL and 256 µg/mL, respectively. For the same test system, the “minimum concentration of killing” value is 16 µg/mL with tobramycin [3]; 64 µg/mL with colistin [4]; ≤ 1 µg/mL in the assay with tobramycin [5]; 64 µg/mL with colistin [6]; 256 µg/mL in the assay with colistin [7]; 16 µg/mL with tobramycin [8].
Regarding “Pseudomonas aeruginosa clinical isolate ZG302383”, the entries for the “minimum concentration eradicating biofilm below detection limit” value with tobramycin [1] and with colistin [2] were 256 µg/mL and 1020 µg/mL, respectively. The “minimum concentration of killing” value in the assay with tobramycin [3] is 4 µg/mL; with colistin [4] it was 64 µg/mL; with tobramycin [5] it was ≤ 1 µg/mL; with colistin [6] it was 256 µg/mL; with colistin [7] it was 256 µg/mL; with tobramycin [8], 256 µg/mL.
For the test system “Pseudomonas aeruginosa clinical isolate CH4860”, the “minimum concentration eradicating biofilm below detection limit” value is 64 µg/mL with tobramycin [1] and 256 µg/mL with colistin [2]. For the same test system, the “minimum concentration of killing” value in the assay with tobramycin [3] came out at 16 µg/mL; in the assay with colistin [4], 64 µg/mL; with tobramycin [5], 16 µg/mL; with colistin [6], 64 µg/mL; with colistin [7], 256 µg/mL; with tobramycin [8], 64 µg/mL.
In the case of “Pseudomonas aeruginosa clinical isolate MHH2419”, the figures for the “minimum concentration eradicating biofilm below detection limit” value with tobramycin [1] and with colistin [2] were > 1020 µg/mL and 256 µg/mL, respectively. For the same test system, the “minimum concentration of killing” value with tobramycin [3] is > 1020 µg/mL; with colistin [4], 256 µg/mL; with tobramycin [5] it was > 1020 µg/mL; with colistin [6] it was 256 µg/mL; with colistin [7], 256 µg/mL; with tobramycin [8] it was > 1020 µg/mL.
With “Pseudomonas aeruginosa clinical isolate CF577_Iso7”, the “minimum concentration eradicating biofilm below detection limit” value with tobramycin [1] was > 1020 µg/mL; with colistin [2], 64 µg/mL. Moreover, the “minimum concentration of killing” value was 1020 µg/mL with tobramycin [3]; ≤ 1 µg/mL in the assay with colistin [4]; 1020 µg/mL with tobramycin [5]; 64 µg/mL with colistin [6]; 64 µg/mL in the assay with colistin [7]; > 1020 µg/mL with tobramycin [8].
As to “Pseudomonas aeruginosa clinical isolate M70641593”, the “minimum concentration eradicating biofilm below detection limit” value was 1020 µg/mL with tobramycin [1] and 256 µg/mL in the assay with colistin [2]. In addition, the “minimum concentration of killing” value with tobramycin [3] turned out to be 64 µg/mL; with colistin [4], 256 µg/mL; with tobramycin [5] it was 64 µg/mL; with colistin [6], 256 µg/mL; with colistin [7], 256 µg/mL; with tobramycin [8], 1020 µg/mL.
For the test system “Pseudomonas aeruginosa clinical isolate PSAE1630”, the “minimum concentration eradicating biofilm below detection limit” value in the assay with tobramycin [1] is > 1020 µg/mL; with colistin [2], 256 µg/mL. In addition, the “minimum concentration of killing” value was 1020 µg/mL with tobramycin [3]; 256 µg/mL with colistin [4]; ≤ 1 µg/mL with tobramycin [5]; 256 µg/mL with colistin [6]; 256 µg/mL with colistin [7]; > 1020 µg/mL with tobramycin [8].

The values above are taken from the supplement of paper PMC8920030.
